Results from EP4567040A1, “CRYSTAL FORM OF FUSED TRICYCLIC DERIVATIVE AND PREPARATION METHOD” (Jiangsu Hengrui Pharmaceuticals Co., Ltd., priority 2022, dated 2024).
The source gives many values for each of these; only a part stands here.

Assay: Influencing factor stability study of crystal forms
Type: physicochemical
Description: Example 50. Influencing Factor Stability Study of Crystal Forms Free-state samples were spread out, left to stand in open flasks, and subjected to 30-day stability tests under light exposure (4500 Lux), high temperature (40 °C and 60 °C), and high humidity (RH 75% and RH 92.5%) conditions.

[1] = Light exposure (4500 Lux), 7 days, open flask
[2] = Light exposure (4500 Lux), 14 days, open flask
[3] = Light exposure (4500 Lux), 30 days, open flask

Row | Purity% (40 °C, 7 days, open flask) | Purity% (40 °C, 14 days, open flask) | Purity% (40 °C, 30 days, open flask) | Purity% (60 °C, 7 days, open flask) | Purity% (60 °C, 14 days, open flask) | Purity% (60 °C, 30 days, open flask) | Purity% (75% RH, 7 days, open flask) | Purity% (75% RH, 14 days, open flask) | Purity% (75% RH, 30 days, open flask) | Purity% (92.5% RH, 7 days, open flask) | Purity% (92.5% RH, 14 days, open flask) | Purity% (92.5% RH, 30 days, open flask) | Purity% (Initial, 0 days) | Purity% [1] | Purity% [2] | Purity% [3] | Compound
1 | 99.96% | 99.94% | 99.93% | 99.95% | 99.94% | 99.92% | 99.96% | 99.95% | 99.95% | 99.95% | 99.95% | 99.94% | 99.95% | 99.89% | 99.83% | 99.69% | C[C@H]1COc2c(-c3nc(N[C@@H]4CCOC[C@H]4O)ncc3Cl)cc(F)c3nc(C(C)(C)O)n1c23 [Crystal form H, (3S,4R)-4-((5-chloro-4-((S)-8-fluoro-2-(2-hydroxypropan-2-yl)-3-methyl-3,4-dihydro-5-oxa-1,2a-diazaacenaphthylen-6-yl)pyrimidin-2-yl)amino)tetrahydro-2H-pyran-3-ol]
2 | 99.9% | 99.9% | 99.9% | 99.9% | 99.9% | 99.9% | 99.9% | 99.9% | 99.9% | 99.9% | 99.9% | 99.9% | 99.9% | 98.5% | 98.1% | 96.8% | C[C@H]1COc2c(-c3nc(N[C@@H]4CCOC[C@H]4O)ncc3Cl)cc(F)c3nc(C(C)(C)O)n1c23 [Crystal form G, (3S,4R)-4-((5-chloro-4-((S)-8-fluoro-2-(2-hydroxypropan-2-yl)-3-methyl-3,4-dihydro-5-oxa-1,2a-diazaacenaphthylen-6-yl)pyrimidin-2-yl)amino)tetrahydro-2H-pyran-3-ol]
3 | 99.0% | 99.0% | 98.9% | 99.0% | 99.0% | 99.0% | 99.0% | 99.0% | 98.9% | 99.0% | 99.0% | 98.9% | 99.0% | 98.3% | 97.8% | 97.4% | C[C@H]1COc2c(-c3nc(N[C@@H]4CCOC[C@H]4O)ncc3Cl)cc(F)c3nc(C(C)(C)O)n1c23 [Free-state amorphous form, (3S,4R)-4-((5-chloro-4-((S)-8-fluoro-2-(2-hydroxypropan-2-yl)-3-methyl-3,4-dihydro-5-oxa-1,2a-diazaacenaphthylen-6-yl)pyrimidin-2-yl)amino)tetrahydro-2H-pyran-3-ol]
4 | 99.9% | 99.9% | 99.9% | 99.9% | 99.9% | 99.9% | 99.9% | 99.9% | 99.9% | 99.9% | 99.9% | 99.9% | 99.9% | 99.6% | 99.4% | 98.1% | C[C@H]1COc2c(-c3nc(N[C@@H]4CCOC[C@H]4O)ncc3Cl)cc(F)c3nc(C(C)(C)O)n1c23 [Crystal form F, (3S,4R)-4-((5-chloro-4-((S)-8-fluoro-2-(2-hydroxypropan-2-yl)-3-methyl-3,4-dihydro-5-oxa-1,2a-diazaacenaphthylen-6-yl)pyrimidin-2-yl)amino)tetrahydro-2H-pyran-3-ol]
